# Test results as given in the supplement of paper PMC7125110.
# ± gives the standard error. Many entries were measured with a wide error.
# B1: glmS ribozyme (parent)
# chain: AUAAAAGCGCCAGAACUACAGAAAUGUAGUUGACGAGGAGGAGGUUUAUCGAAUUUUCGGCGGAUGCCUCCAAA
# Variants of: B1
# Test: kcat; higher = faster cleavage; RNA array
# Conditions: with glucosamine-6-phosphate
# How it was run: (§1)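 E. coli RNA polymerase transcribed barcoded ribozyme variants in situ on sequenced MiSeq chips, which were tracked via a hybridised Cy3 probe at 37 °C. Tiles were imaged over ~14 h after glucosamine-6-phosphate (40 μM to 10 mM) in HEPES/KCl/Mg(OAc)2 buffer was flowed in. Normalised per-tile medians were fit to one- or two-exponential decays for kobs, and kcat and KM came from weighted Michaelis–Menten fits.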
row,Variant,kcat [s⁻¹]
1,G37C U65A,< 1e-05
2,G38A C71U,< 1e-05
3,A39G A48U,0.00118 ± 0.00016
4,A39G A53C,0.0214 ± 0.011
5,A39G C70U,0.0226 ± 0.013
6,A39G G40C,9.61e-05 ± 1.3e-05
7,A39G G44C,0.000507 ± 6.5e-05
8,A39U A42G C67U,0.00435 ± 0.0028
9,G40C,0.00326 ± 0.0017
10,G40U,0.0166 ± 0.01
11,G40U U54A,0.000873 ± 0.00056
12,G41A C67A,0.000258 ± 0.00017
13,A42G C67G,0.0139 ± 0.0077
14,A42U G66C,2.02e-05 ± 1.1e-05
15,G44U U65A,0.000116 ± 9.7e-05
16,U45A C70U,0.00288 ± 0.0015
17,U45G U56C,0.0017 ± 0.0014
18,U46G C50G C71A,2.29e-05 ± 1.7e-05
19,U47A A53C,0.00699 ± 0.0045
20,U47A A53G,0.0188 ± 0.011
21,U47C U49G,0.000198 ± 1.4e-05
22,A48U A53C C68G C71G,4.41e-05 ± 3.4e-05

row,Variant,kcat [s⁻¹]
1,U49A C68A,1.25e-05 ± 6e-06
2,C50G G66C,3.21e-05 ± 1.9e-05
3,C50U U57A C68A U69G C71G,4.02e-05 ± 2.5e-05
4,A53C C70A,5.94e-05 ± 1.5e-05
5,A53C C70U,0.00487 ± 0.0012
6,A53G U65C,0.000702 ± 0.00037
7,A53U U55C,0.016 ± 0.0084
8,A53U U69G,6.8e-05 ± 1.2e-05
9,U54G C61A,< 1e-05
10,U54G U56C,0.00516 ± 0.004
11,U55C C68G,< 1e-05
12,U55G G59U,0.000139 ± 0.0001
13,U56A C71U,0.0254 ± 0.017
14,U57G A64U C67A C68U,9.53e-05 ± 7.2e-05
15,C58A C67U,0.000215 ± 1.7e-05
16,C58G A64C C67U,3.63e-05 ± 2.4e-05
17,G59U C70G,2.04e-05 ± 1.7e-05
18,G59U U69G,2.94e-05 ± 8.4e-06
19,A64U G66U,< 1e-05
20,U65A U69C,0.000883 ± 0.00052
21,C67G U69C,0.00123 ± 0.00012

# Variants of: B1
# Test: KM; higher = weaker cofactor use; RNA array
# Conditions: with glucosamine-6-phosphate
# How it was run: as §1
row,Variant,KM [µM]
1,G37C U65A,13300 ± 13000
2,A39G A48U,5000 ± 1200
3,A39G A53C,4280 ± 2600
4,A39G C70U,1280 ± 1000
5,A39G G40C,605 ± 360
6,A39G G44C,2450 ± 660
7,A39U A42G C67U,946 ± 870
8,G40C,846 ± 520
9,G40U,5200 ± 3700
10,G40U U54A,508 ± 500
11,G41A C67A,51300 ± 40000
12,A42G C67G,2220 ± 1800
13,A42U G66C,21400 ± 17000
14,U47A A53C,2450 ± 2000
15,U47A A53G,1170 ± 880
16,U47C U49G,1240 ± 220
17,A53C C70U,2220 ± 670
18,A53G U65C,2440 ± 2400
19,A53U U55C,1970 ± 1400
20,U54G U56C,4870 ± 4700
21,U56A C71U,4940 ± 3700
22,C58A C67U,1370 ± 290
23,C67G U69C,958 ± 170

# 3 records drawn at random from those above, as already listed:
row,Variant,KM [µM]
18,A53G U65C,2440 ± 2400
5,A39G G40C,605 ± 360
3,A39G A53C,4280 ± 2600

# More results follow:

row,Variant,KM [µM]
1,A6C C68U,534 ± 140
2,A6G C11A,29300 ± 12000
3,A6G U31C,1400 ± 990
4,A6G U55G,2390 ± 350
5,A6U G13A,29.9 ± 24
6,A6U U46A,51700 ± 8700
7,A6U U69C,380 ± 200
8,G7U A53C C58A U69G C70U,374 ± 200
9,C8U C61A,64.2 ± 61
10,G9A C67G,185 ± 120
11,G9A U54C,63700 ± 17000
12,C10A C67G,81.7 ± 67
13,C10G A39G,380 ± 230
14,C10U A53U,4460 ± 3100
15,C10U C11U,15200 ± 12000
16,C11U A39C,4650 ± 1100
17,C11U A42G,3690 ± 2100
18,C11U U31G,4430 ± 2800
19,A12C A15U C16U C70U,514 ± 130
20,A12C C16U,1120 ± 630
21,A12C C50A U56A,1570 ± 1300
22,A12C G66U,1990 ± 990
23,A12C U49G,1730 ± 210

# Single entries from the results shown.
# Value for C10G A39G under KM [µM]: 380 ± 230
# Value for A6G U55G under KM [µM]: 2390 ± 350
# Value for A12C C50A U56A under KM [µM]: 1570 ± 1300
# Value for A6U G13A under KM [µM]: 29.9 ± 24

# Following part

row,Variant,KM [µM]
1,A12C U69G,40.2 ± 35
2,A12G A14U C58A G66C,17900 ± 8100
3,A12G A42U,20200 ± 1600
4,A12G A48G,704 ± 640
5,A12G A52G A53G,6940 ± 5000
6,A12G C16U,9760 ± 5800
7,A12G G29C,3980 ± 3000
8,A12U A39U,386 ± 240
9,A12U C16A A33U A36C G38A G62A U69A C71U,26.2 ± 16
10,A12U C71G,391 ± 290
11,A12U G40A C71U,2130 ± 1200
12,A12U G44U,1290 ± 350
13,G13A A14G,3430 ± 1000
14,G13A A39G C61G C70A,24.6 ± 16
15,G13A A42C,16.9 ± 12
16,G13A C16A,14000 ± 570
17,G13A C71U,4730 ± 920
18,G13C G66U,766 ± 350
19,G13C U31C G32U U65G C67U,3040 ± 640
20,G13U A15C U54C,463 ± 330
21,G13U C61A,158 ± 120
22,G13U U56G,2720 ± 820
23,A14C A48C,992 ± 920

row,Variant,KM [µM]
1,A14C C16A,548 ± 390
2,A14C C71G,3120 ± 2400
3,A14C G44C C67G,2580 ± 1700
4,A14C U31A,666 ± 410
5,A14C U65G C70U,4250 ± 2200
6,A14G A39C,3470 ± 520
7,A14G A64G U65A,725 ± 390
8,A14G G37C,2180 ± 2200
9,A14G G66C,1410 ± 110
10,A14U A39G,2730 ± 1800
11,A14U C68U,3310 ± 1700
12,A14U G40A,1500 ± 450
13,A14U U54A,1560 ± 560
14,A14U U56G,634 ± 390
15,A14U U57C,1310 ± 930
16,A15C C70G,115 ± 73
17,A15G C58G,10400 ± 4100
18,A15G G43A,2300 ± 940
19,A15U A53U,2950 ± 940
20,C16A A53G,1640 ± 990
21,C16A G40A,1490 ± 1500
22,C16A G51A,632 ± 220
23,C16G A33C,539 ± 390

# Exported bar-delimited: part of the list above
row | Variant | KM [µM]
3 | A14C G44C C67G | 2580 ± 1700
12 | A14U G40A | 1500 ± 450
16 | A15C C70G | 115 ± 73

# Following part

row,Variant,KM [µM]
1,C16G C61U C67U,30.7 ± 22
2,C16G G29U U54A,5160 ± 3100
3,C16G G32C,4550 ± 1400
4,C16G G66U,2380 ± 200
5,C16U A48G,1020 ± 760
6,C16U A64G,1550 ± 830
7,C16U U45A,744 ± 540
8,C19A G40C,832 ± 360
9,G21A,330 ± 170
10,G26A,332 ± 180
11,G26U U65G,4570 ± 1200
12,G29A A48U,110000 ± 30000
13,G29C A64G,1550 ± 1100
14,G29C U47A,3370 ± 2000
15,G29U C71G,583 ± 350
16,G29U G41C,5390 ± 3700
17,G29U U49G,5270 ± 1900
18,G29U U54C,1540 ± 590
19,U30A C58U,2130 ± 1600
20,U30A U56C,14900 ± 6300
21,U30C G40C,933 ± 520

# Variants of: B1
# Test: self-cleavage kobs at 160 uM GlcN6P; higher = faster cleavage; RNA array
# Conditions: with glucosamine-6-phosphate
# How it was run: as §1
row,Variant,self-cleavage kobs at 160 uM GlcN6P [s⁻¹]
1,A39G A48U,2.25e-05 ± 1.8e-05
2,A53G U65C,2.87e-05 ± 1.9e-05
3,C58A C67U,2.03e-05 ± 1.7e-05
4,C58G A64C C67U,2.95e-05 ± 2.2e-05
5,G59U U69G,2.61e-05 ± 2.1e-05
6,A6G U55G,2.67e-05 ± 2.3e-05
7,C10A C67G,0.000247 ± 0.00015
8,C11U A39C,2.23e-05 ± 1.6e-05
9,A12U G40A C71U,0.00441 ± 0.0024
10,C16U A48G,1.69e-05 ± 1.7e-05
11,C16U U45A,0.00348 ± 0.0018

# Variants of: B1
# Test: self-cleavage kobs at 10000 uM GlcN6P; higher = faster cleavage; RNA array
# Conditions: with glucosamine-6-phosphate
# How it was run: as §1
row,Variant,self-cleavage kobs at 10000 uM GlcN6P [s⁻¹]
1,G40C,0.01 ± 0.009
2,U46G C50G C71A,1.46e-05 ± 1.4e-05
3,C50G G66C,2.08e-05 ± 1.5e-05
4,A6U U46A,1.86e-05 ± 9.9e-06
5,C10A C67G,0.00069 ± 0.00038
6,C10U C11U,1.24e-05 ± 1.1e-05
7,A12G A48G,1.82e-05 ± 1.2e-05
8,A12G A52G A53G,1.49e-05 ± 1.2e-05
9,A14C U31A,0.0407 ± 0.024
10,U30A C58U,1.48e-05 ± 8.7e-06

# Variants of: B1
# Test: self-cleavage kobs at 640 uM GlcN6P; higher = faster cleavage; RNA array
# Conditions: with glucosamine-6-phosphate
# How it was run: as §1
row,Variant,self-cleavage kobs at 640 uM GlcN6P [s⁻¹]
1,G44U U65A,2.26e-05 ± 2e-05
2,U57G A64U C67A C68U,0.000101 ± 6.1e-05
3,A6C C68U,2.26e-05 ± 1.4e-05
4,G7U A53C C58A U69G C70U,0.000369 ± 0.00025
5,G13A C16A,1.46e-05 ± 9.7e-06
6,G13U A15C U54C,6.27e-05 ± 4.3e-05
7,A15G C58G,1.91e-05 ± 1e-05
8,U30C G40C,2.12e-05 ± 1.7e-05

# Variants of: B1
# Test: self-cleavage kobs at 2500 uM GlcN6P; higher = faster cleavage; RNA array
# Conditions: with glucosamine-6-phosphate
# How it was run: as §1
row,Variant,self-cleavage kobs at 2500 uM GlcN6P [s⁻¹]
1,G44U U65A,1.71e-05 ± 1.3e-05
2,U46G C50G C71A,1.84e-05 ± 1.7e-05
3,C50G G66C,4e-05 ± 2.2e-05
4,C50U U57A C68A U69G C71G,7.07e-05 ± 4.4e-05
5,U55G G59U,1.35e-05 ± 1.2e-05
6,C58G A64C C67U,2.73e-05 ± 2.5e-05
7,G59U C70G,2.26e-05 ± 1.5e-05
8,G59U U69G,3.38e-05 ± 2.2e-05
9,A12G A14U C58A G66C,2.91e-05 ± 2.4e-05
10,A12G A48G,1.92e-05 ± 1.3e-05
11,A12U G40A C71U,0.0456 ± 0.024
12,G13C U31C G32U U65G C67U,3.2e-05 ± 1.8e-05
13,A14U G40A,0.000652 ± 0.00039
14,G29U G41C,1.38e-05 ± 1.1e-05

# Variants of: B1
# Test: self-cleavage kobs at 40 uM GlcN6P; higher = faster cleavage; RNA array
# Conditions: with glucosamine-6-phosphate
# How it was run: as §1
row,Variant,self-cleavage kobs at 40 uM GlcN6P [s⁻¹]
1,U45G U56C,1.97e-05 ± 1.6e-05
2,C50G G66C,2.61e-05 ± 1.7e-05
3,U57G A64U C67A C68U,2.72e-05 ± 2e-05
4,C11U A39C,2.25e-05 ± 1.4e-05
5,A12C U69G,2.57e-05 ± 2.1e-05
6,A12G C16U,1.97e-05 ± 1.6e-05
7,G13A C71U,1.03e-05 ± 9.7e-06
8,G13U U56G,2.28e-05 ± 1.2e-05
9,A14C C71G,3.44e-05 ± 2.2e-05
10,U30A U56C,1.8e-05 ± 1.6e-05
